From the supplement of paper PMC11006884 come the findings set out here.

Amino acid sequences for entries named in this document (tags omitted). A change or cut given only in a name is not applied to a line headed by its entry.
UniProt O15213: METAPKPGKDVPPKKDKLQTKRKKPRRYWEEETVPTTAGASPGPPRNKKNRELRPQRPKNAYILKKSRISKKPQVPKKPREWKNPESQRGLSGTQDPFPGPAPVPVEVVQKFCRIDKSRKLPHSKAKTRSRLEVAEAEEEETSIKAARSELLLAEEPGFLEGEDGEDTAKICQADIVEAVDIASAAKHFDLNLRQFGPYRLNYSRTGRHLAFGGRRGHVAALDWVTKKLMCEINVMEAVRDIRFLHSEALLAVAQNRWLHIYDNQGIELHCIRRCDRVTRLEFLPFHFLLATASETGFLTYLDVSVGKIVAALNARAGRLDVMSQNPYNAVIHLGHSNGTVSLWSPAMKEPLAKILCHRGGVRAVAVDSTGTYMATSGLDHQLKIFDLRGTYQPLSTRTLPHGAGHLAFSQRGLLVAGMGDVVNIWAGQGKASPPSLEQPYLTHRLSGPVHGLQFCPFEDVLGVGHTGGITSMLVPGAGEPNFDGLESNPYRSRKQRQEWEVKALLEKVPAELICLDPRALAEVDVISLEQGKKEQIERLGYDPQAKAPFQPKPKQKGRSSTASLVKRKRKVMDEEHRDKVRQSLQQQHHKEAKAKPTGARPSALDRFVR
UniProt O00161: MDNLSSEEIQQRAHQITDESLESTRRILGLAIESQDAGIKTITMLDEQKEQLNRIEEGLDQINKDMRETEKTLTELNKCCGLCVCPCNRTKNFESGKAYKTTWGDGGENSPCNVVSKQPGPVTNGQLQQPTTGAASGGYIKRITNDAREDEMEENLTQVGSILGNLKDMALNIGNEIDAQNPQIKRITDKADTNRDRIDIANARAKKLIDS
UniProt O43159: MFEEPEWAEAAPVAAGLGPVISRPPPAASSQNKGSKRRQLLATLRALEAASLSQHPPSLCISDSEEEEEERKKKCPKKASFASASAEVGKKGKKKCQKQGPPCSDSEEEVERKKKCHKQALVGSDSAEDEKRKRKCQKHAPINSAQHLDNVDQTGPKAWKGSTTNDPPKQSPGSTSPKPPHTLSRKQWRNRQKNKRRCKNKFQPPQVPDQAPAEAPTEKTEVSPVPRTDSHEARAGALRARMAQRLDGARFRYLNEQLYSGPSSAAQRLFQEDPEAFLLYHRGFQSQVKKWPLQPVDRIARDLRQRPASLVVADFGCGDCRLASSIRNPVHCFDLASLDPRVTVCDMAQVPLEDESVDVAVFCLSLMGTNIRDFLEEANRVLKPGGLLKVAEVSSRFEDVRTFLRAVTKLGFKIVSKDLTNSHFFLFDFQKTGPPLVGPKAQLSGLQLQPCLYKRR
UniProt O00148, whole entry, looked up: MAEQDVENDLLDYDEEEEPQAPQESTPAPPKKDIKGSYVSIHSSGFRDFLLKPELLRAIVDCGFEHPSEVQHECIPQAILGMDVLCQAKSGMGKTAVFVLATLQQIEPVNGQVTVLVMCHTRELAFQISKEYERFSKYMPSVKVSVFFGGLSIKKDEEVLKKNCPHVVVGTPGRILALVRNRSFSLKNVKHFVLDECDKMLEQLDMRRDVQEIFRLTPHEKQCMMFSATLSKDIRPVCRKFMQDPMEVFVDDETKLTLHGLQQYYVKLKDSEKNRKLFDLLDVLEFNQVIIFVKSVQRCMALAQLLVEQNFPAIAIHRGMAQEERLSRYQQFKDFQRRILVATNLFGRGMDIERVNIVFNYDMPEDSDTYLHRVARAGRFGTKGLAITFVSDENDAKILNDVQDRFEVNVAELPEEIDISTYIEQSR
UniProt O14713: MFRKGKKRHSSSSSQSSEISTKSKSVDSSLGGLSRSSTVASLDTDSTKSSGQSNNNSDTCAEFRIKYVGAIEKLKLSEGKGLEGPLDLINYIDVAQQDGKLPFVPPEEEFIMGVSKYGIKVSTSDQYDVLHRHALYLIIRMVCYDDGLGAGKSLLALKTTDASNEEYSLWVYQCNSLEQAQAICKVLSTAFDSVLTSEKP
UniProt O15304: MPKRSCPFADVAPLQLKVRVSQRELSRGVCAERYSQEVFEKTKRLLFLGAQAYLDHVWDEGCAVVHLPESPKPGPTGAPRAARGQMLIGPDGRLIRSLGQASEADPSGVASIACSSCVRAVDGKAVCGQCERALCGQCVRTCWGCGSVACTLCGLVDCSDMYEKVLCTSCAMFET
UniProt O14654: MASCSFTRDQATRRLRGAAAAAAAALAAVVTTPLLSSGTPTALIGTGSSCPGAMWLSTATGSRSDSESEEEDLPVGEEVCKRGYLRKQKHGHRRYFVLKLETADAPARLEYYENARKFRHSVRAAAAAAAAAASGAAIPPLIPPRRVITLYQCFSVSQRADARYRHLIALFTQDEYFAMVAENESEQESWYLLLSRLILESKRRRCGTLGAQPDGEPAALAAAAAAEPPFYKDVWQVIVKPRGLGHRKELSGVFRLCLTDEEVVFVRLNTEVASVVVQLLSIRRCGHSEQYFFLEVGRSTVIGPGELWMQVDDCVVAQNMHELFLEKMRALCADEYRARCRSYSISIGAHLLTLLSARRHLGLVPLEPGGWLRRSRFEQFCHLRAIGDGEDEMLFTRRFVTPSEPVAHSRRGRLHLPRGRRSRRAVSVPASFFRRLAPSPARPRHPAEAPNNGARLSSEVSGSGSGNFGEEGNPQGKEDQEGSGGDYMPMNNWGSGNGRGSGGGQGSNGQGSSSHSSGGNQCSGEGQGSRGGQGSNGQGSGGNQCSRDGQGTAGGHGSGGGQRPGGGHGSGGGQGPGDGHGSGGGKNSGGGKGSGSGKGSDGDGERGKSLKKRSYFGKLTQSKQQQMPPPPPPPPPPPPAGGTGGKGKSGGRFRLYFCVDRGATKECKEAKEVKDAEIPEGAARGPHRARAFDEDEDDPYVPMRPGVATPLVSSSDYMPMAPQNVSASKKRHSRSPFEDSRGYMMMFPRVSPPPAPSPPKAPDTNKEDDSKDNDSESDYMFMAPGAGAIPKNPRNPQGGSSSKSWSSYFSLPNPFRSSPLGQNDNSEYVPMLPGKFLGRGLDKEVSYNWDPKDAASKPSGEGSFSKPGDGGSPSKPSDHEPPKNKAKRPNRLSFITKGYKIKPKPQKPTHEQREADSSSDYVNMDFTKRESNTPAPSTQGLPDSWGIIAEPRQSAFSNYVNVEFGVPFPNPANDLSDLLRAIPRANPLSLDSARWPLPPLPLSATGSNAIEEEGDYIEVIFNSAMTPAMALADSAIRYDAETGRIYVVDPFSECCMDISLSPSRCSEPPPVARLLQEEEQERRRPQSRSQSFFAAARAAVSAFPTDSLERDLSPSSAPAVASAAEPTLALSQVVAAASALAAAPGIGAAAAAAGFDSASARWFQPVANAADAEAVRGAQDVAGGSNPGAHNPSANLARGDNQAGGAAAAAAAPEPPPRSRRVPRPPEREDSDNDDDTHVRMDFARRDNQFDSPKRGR
UniProt O15111: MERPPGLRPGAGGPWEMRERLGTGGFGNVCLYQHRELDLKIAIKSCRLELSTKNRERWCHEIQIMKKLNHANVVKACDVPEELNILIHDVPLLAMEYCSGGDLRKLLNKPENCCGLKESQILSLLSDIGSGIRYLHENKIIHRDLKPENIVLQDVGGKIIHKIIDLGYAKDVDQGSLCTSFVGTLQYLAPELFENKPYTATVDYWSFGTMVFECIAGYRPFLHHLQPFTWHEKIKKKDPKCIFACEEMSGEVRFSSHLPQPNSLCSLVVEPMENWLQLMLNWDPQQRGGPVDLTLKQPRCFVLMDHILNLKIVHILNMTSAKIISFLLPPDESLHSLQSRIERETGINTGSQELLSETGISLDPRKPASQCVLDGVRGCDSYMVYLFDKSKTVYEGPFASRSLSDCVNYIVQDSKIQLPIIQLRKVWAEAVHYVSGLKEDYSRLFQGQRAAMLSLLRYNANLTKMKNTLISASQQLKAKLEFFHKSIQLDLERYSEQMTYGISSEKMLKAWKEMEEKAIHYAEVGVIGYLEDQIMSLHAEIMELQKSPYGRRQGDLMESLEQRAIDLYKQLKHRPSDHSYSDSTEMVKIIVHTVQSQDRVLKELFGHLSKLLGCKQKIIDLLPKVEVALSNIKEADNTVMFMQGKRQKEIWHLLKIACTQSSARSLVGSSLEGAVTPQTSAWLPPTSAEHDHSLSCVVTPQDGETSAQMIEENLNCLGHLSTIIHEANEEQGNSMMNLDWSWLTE
UniProt A8MW92: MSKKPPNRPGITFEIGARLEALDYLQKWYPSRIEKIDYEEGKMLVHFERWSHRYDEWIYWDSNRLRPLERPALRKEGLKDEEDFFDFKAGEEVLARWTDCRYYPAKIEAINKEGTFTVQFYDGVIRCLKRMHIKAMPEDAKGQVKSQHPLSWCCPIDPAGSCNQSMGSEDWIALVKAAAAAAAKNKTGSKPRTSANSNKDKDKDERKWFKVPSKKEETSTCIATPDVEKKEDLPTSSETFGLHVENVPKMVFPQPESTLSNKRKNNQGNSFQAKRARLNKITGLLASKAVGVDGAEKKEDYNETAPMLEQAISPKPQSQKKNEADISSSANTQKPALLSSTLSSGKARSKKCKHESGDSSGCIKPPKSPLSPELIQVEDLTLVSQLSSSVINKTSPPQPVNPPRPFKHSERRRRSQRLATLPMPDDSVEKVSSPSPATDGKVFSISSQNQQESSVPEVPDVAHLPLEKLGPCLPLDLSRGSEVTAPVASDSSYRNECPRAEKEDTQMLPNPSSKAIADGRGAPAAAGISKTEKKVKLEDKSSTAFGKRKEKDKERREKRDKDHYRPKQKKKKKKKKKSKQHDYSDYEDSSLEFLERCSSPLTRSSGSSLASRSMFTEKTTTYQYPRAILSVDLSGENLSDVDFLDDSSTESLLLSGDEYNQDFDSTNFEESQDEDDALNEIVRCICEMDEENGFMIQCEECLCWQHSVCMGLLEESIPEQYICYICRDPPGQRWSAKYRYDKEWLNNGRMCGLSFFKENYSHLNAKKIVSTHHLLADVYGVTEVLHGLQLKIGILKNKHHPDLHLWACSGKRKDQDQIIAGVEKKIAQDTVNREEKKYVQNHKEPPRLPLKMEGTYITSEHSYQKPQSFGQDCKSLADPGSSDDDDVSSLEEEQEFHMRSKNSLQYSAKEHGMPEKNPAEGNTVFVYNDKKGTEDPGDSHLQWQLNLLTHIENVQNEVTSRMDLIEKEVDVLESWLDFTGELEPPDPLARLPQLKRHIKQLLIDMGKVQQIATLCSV
UniProt O00273: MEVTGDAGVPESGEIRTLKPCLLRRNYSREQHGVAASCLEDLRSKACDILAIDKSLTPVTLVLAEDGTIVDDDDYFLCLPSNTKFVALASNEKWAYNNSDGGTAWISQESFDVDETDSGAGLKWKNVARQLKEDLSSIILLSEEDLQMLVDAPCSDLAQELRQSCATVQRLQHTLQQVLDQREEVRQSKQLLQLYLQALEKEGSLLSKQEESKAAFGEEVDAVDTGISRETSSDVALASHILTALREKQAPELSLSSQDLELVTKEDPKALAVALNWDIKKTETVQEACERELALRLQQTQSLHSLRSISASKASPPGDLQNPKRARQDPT

The targets with a hit were mostly taken out for another list; the other results follow. Single values of this set are uncertain. The entries are a selection whose mix differs from that of the whole data set.

Compound in this test: COC(=O)/C=C/c1ccccc1 [methyl cinnamate]
Kind of test: log2 ratio of iodoacetamide-alkyne labeling of the cysteine site, DMSO over compound (competition); higher = stronger covalent engagement of the cysteine by the compound, active = 1 or more. The settings on record: 500 µM; treatment time 1 h; system: HEK293T cell lysate. A digest of the protocol:
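HEK293T lysate at 2 mg/mL was treated with vehicle or electrophile (500 µM) for 1 h at ambient temperature, then labelled with iodoacetamide alkyne (1 h), clicked to sCIP-TMT reagents, pooled, digested with trypsin overnight at 37 °C, enriched on streptavidin and eluted with acid. Peptides were analysed by Orbitrap Eclipse LC-MS/MS with FAIMS and quantified in FragPipe, using duplicate channels and three replicates, with cysteines quantified in only one replicate excluded. The log2 competition ratio for each cysteine is the mean control-channel reporter intensity divided by the mean compound-channel reporter intensity.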
For CLIC1 C59 (UniProt O00299), the “log2 ratio of iodoacetamide-alkyne labeling” value (shortened to “log2 ratio”) is inactive: -0.0618.

As for ZZEF1 C1259 (UniProt O43149), the “log2 ratio” value was inactive: 0.433.

On to PDLIM1 C307 (UniProt O00151), for which the “log2 ratio” value is inactive: 0.0299.

As to WDR46 C456 (UniProt O15213), the “log2 ratio” value was inactive: -0.197.

Turning to GEMIN2 C34 (UniProt O14893), the “log2 ratio” value is inactive: 0.0446.

Take SNAP23 C112 (UniProt O00161): the “log2 ratio” value was inactive: 0.446.

Regarding DDX3X C298 (UniProt O00571), the “log2 ratio” value was inactive: 0.254.

For the target UniProt O43159_C332, the “log2 ratio” value is inactive: -0.0304.

In the case of DVL2 C354 (UniProt O14641), the “log2 ratio” value was inactive: 0.541.

As to AGPS C214 (UniProt O00116), the “log2 ratio” value was inactive: -0.117.

CD3EAP C86 (UniProt O15446): the “log2 ratio” value is inactive: -0.00342.

Regarding UniProt O00148_C62, the “log2 ratio” value was inactive: -0.415.

Regarding PODXL C344 (UniProt O00592), the “log2 ratio” value was inactive: 0.22.

As to PFAS C270 (UniProt O15067), the “log2 ratio” value is inactive: 0.25.

UniProt O14950_C109: the “log2 ratio” value was inactive: 0.289.

Take UniProt O00567_C384: the “log2 ratio” value was inactive: -0.277.

For the target NDUFS8 C117 (UniProt O00217), the “log2 ratio” value is inactive: -0.0403.

For UniProt O14972_C243, the “log2 ratio” value was inactive: 0.146.

As to CLIC1 C191 (UniProt O00299), the “log2 ratio” value was inactive: 0.105.

For the target ITGB1BP1 C60 (UniProt O14713), the “log2 ratio” value is inactive: 0.456.

Regarding SIVA1 C6 (UniProt O15304), the “log2 ratio” value was inactive: 0.209.

In the case of UniProt O00487_C299, the “log2 ratio” value was inactive: -0.529.

Regarding IRS4 C658 (UniProt O14654), the “log2 ratio” value is inactive: 0.321.

Turning to UniProt O15111_C406, the “log2 ratio” value was inactive: 0.137.

In the case of GEMIN2 C89 (UniProt O14893), the “log2 ratio” value was inactive: 0.313.

Regarding PRPF4 C299 (UniProt O43172), the “log2 ratio” value is inactive: 0.136.

HAT1 C27 (UniProt O14929): the “log2 ratio” value was inactive: 0.313.

UniProt A8MW92_C472: the “log2 ratio” value is inactive: 0.333.

Consider OGT C620 (UniProt O15294), for which the “log2 ratio” value is inactive: 0.292.

Take EIF3D C327 (UniProt O15371): the “log2 ratio” value is inactive: -0.074.

In the case of DDX3X C317 (UniProt O00571), the “log2 ratio” value was inactive: -0.0622.

As to UniProt O15042_C291, the “log2 ratio” value is inactive: 0.19.

Take PFAS C66 (UniProt O15067): the “log2 ratio” value is inactive: -0.0482.

Turning to PSMD9 C216 (UniProt O00233), the “log2 ratio” value was inactive: 0.00303.

For the target FAM171A2 C742 (UniProt A8MVW0), the “log2 ratio” value was inactive: 0.0588.

Take MRPS12 C93 (UniProt O15235): the “log2 ratio” value is inactive: 0.107.

In the case of ARID1A C1968 (UniProt O14497), the “log2 ratio” value is inactive: 0.167.

Consider DFFA C38 (UniProt O00273), for which the “log2 ratio” value was inactive: 0.126.
